Test results from patent US8399511B2, “Two types of crystalline of pinocembrin, their preparation and their use for manufacture of pharmaceutical compositions” (CSPC Zhongqi Pharmaceutical Technology (Shijiazhuang) Co., …, priority 2008, dated 2013).
At least one read-out could not be matched to a standard name with certainty.

Test: In vivo absorption and blood concentration after oral administration of pinocembrin crystalline forms
Set-up: species or system SD rats
Description: • 1. Monocrystal X-ray analysis • Instrument: MAC DIP-2030K area detector • Test condition: tube voltage: 50 KV, tube flow: 80 mA, ω scanning, MoKα, 2θ≦50.0°, scan range: 0-180°, pivot angle: 6°, step: 6°, scan rate: 1.8°/min. • 2. Powder X-ray analysis • Instrument: Rigaku D/max 2550 powder X-ray diffractometer • Test conditions: voltage: 40 KV, current: 150 mA, scan rate: 8°/min. • 3. DSC analysis • Instrument type: Seiko Instruments Inc. Differential Scanning Calorimeter • Test conditions: purge gas: N2, heating rate: 10° C. /min. • Temperature range: 25-250° C. • 4. IR absorbance spectra • Instrument Nicolet FT-IR spectrometer: IMPACT 400 • Test conditions: KBr pellet • 5. HPCL analysis • Instrument: SHIMADZU LC-10Avp high performance liquid chromatography, SPD-M10Avp diode array detector, CLASS-VP chromatography data system; column: Alltch C18(5μ, 150×4.6 mm); test conditions: column temperature: room temperature; wavelength: 290 nm; mobile phase: methanol/phosphate saline pH 3.0 (64/36); flow rate : 1.0 mL/min; injection volume: 20 μL; injection concentration: 500.0 μg/mL Preparation 1: Synthesis of Pinocembrin Sample
18 of SD rats, female and male each half, with body weight of 230˜250 g, were randomized into 3 groups, with 6 rats each group and female half. […] Then the arterial blood samples at different times were taken and the contents of pinocembrin were determined.

O=C1C[C@@H](c2ccccc2)Oc2cc(O)cc(O)c21 (stereo in doubt) [β crystalline form, 5,7-dihydroxy-2-phenyl-4-chromanone]
Bioavailability relative to α crystalline form: more than 2 times
